Data taken from PubChem BioAssay AID1259415 (National Center for Advancing Translational Sciences (NCATS), 2018).
About 18,000 (4.4%) of roughly 410,000 compounds were called active. This list was built around the results that the source calls inconclusive (neither active nor inactive); the mix of calls is not that of the screen. No stated cut-off is given here; in the data, active means activity change below about -60%; inconclusive means no clear call, values can overlap the other calls; inactive means above about -39%.
On the % scale 0 is the no-effect control and ±100 the full control effect.

Experiment: qHTS Assay for inhibitors of the human cytomegalovirus (HCMV)
Settings: HFF cells, HCMV-luciferase reporter, 72 h; at 57.5 µM; active compounds read low
Method in brief: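 Screen run at 2 compound doses on HFFs infected with reporter HCMV, MOI 1 PFU/cell. Luciferase activity from cell lysates at 72 h post infection gave inhibition relative to buffer-only and Salinomycin wells.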
With `O=C1C=C(NCc2ccc(Cl)c(Cl)c2)CC1` the activity change, negative = inhibition was inconclusive: -41.7%. In the case of `CSc1nc(C)c(Cc2c(F)cccc2Cl)c(=O)[nH]1`, the activity change, negative = inhibition is reported as inconclusive: -54.9%. With `CCC(C)n1c(=N)c(C#N)cc2c(=O)n3cccc(C)c3nc21` (stereo not given) the activity change, negative = inhibition was inconclusive: -49.8%. For `Cc1n[nH]c(C)c1CCCCOc1ccccc1F`, the activity change, negative = inhibition was inconclusive: -51.9%. In the case of `O=C(Nc1ccc(Oc2ccccc2)cc1)C1CCN(S(=O)(=O)c2ccc(Cl)cc2)CC1`, the activity change, negative = inhibition is reported as inactive: -10.9%. For `CCOc1ccc(CCNC(=O)c2ccc3c(c2)c(C)c(C)n3Cc2ccccc2)cc1OCC`, the activity change, negative = inhibition was inconclusive: 0%. With `N#Cc1c(Cl)nsc1NC(=O)c1ccccc1` the activity change, negative = inhibition was active: -99.9%. For `CC1CN(C(=O)c2ccc(-c3cccc(C(F)(F)F)c3)o2)CC(C)O1` (stereo not given), the activity change, negative = inhibition was inconclusive: -41%. With `COC(=O)c1cc(S(=O)(=O)Nc2cccc(-c3ccno3)c2)c[nH]1` the activity change, negative = inhibition was inactive: 26.6%. With `CC(C)CNc1nnnc2c1sc1nc(N3CCOCC3)c3c(c12)CCCC3` the activity change, negative = inhibition was inconclusive: 0%. In the case of `CO/N=C(/COc1ccc(F)cc1)c1ccc(OC)cc1`, the activity change, negative = inhibition is reported as active: -103%. For `c1ccc(CCNc2ncnc3ccccc23)cc1`, the activity change, negative = inhibition was active: -89.3%. In the case of `Cn1nnnc1Sc1ncnc2scc(-c3cccc(F)c3)c12`, the activity change, negative = inhibition is reported as inconclusive: -47.1%. In the case of `CC(=O)c1ccc(NC(=O)c2cnn(-c3cccc(F)c3)c2-n2cccc2)cc1`, the activity change, negative = inhibition is reported as inconclusive: 0%. With `CNCc1ccccc1Sc1cc(O)ccc1O` the activity change, negative = inhibition was inconclusive: -49.3%. In the case of `O=C(Oc1ccccc1Cl)C1CCN(C(=O)c2ccc(F)cc2)CC1`, the activity change, negative = inhibition is reported as inactive: -24.4%. For `CCOC(=O)c1sc(=S)n(-c2ccccc2)c1NC(C)=O`, the activity change, negative = inhibition was inactive: 30%. With `COc1ccc(-n2c(=O)c3ccccc3n(CC(=O)Nc3ccccc3OC)c2=O)cc1` the activity change, negative = inhibition was inconclusive: -51.4%. With `CN(C)CCCN(C(=O)c1cc2cc([N+](=O)[O-])ccc2s1)c1nc2cc3c(cc2s1)OCCO3` the activity change, negative = inhibition was active: -97.7%. In the case of `Cc1ccc(SCC(=O)Nc2ccc3oc(-c4ccccc4C)nc3c2)cc1`, the activity change, negative = inhibition is reported as inactive: 73.5%. For `Cc1ccc(-c2nc(N=Nc3ccc(O)cc3)n[nH]2)cc1`, the activity change, negative = inhibition was active: -100%. With `CSc1ccc(CCNC(=O)CCn2c(=O)c3cccn3c3ccc(F)cc32)cc1` the activity change, negative = inhibition was inactive: -21.7%. In the case of `O=C(CSc1nccc(-c2cccs2)n1)Nc1cccc(Cl)c1`, the activity change, negative = inhibition is reported as inactive: -25.5%. With `COCCNc1nc(Oc2cccc(NC(C)=O)c2)c2sc(-c3ccccc3)cc2n1` the activity change, negative = inhibition was inconclusive: -47.8%. In the case of `COc1ccc(-c2cc(C(F)(F)F)n3ncc(C(=O)NCC4CCCO4)c3n2)cc1` (stereo not given), the activity change, negative = inhibition is reported as inconclusive: -40.1%. For `S=C(NCC1CCCO1)NC1CCCC1` (stereo not given), the activity change, negative = inhibition was inconclusive: -42.6%. For `CCC(C)(C)n1nnnc1C(c1ccc(OC)c(OC)c1)N1CCN(c2cccc(OC)c2)CC1` (stereo not given), the activity change, negative = inhibition was inconclusive: -45.2%. With `CN(C)C(=O)CSc1nnc(-c2cccs2)n1-c1ccccc1` the activity change, negative = inhibition was inconclusive: -46.2%. For `COCCNC(C(=O)Nc1ccc([N+](=O)[O-])cc1Br)c1ccccc1` (stereo not given), the activity change, negative = inhibition was active: -82.5%. In the case of `COc1ccc(C2CC(c3cccs3)=NN2C(=O)c2ccco2)cc1OC` (stereo not given), the activity change, negative = inhibition is reported as inconclusive: -43.6%. In the case of `CCC(=O)NCc1csc(-c2cccs2)n1`, the activity change, negative = inhibition is reported as active: -70.3%. With `COc1ccc(-c2nn(-c3ccccc3C)cc2CNC(C)c2cn(C)nc2C)cc1F` (stereo not given) the activity change, negative = inhibition was inconclusive: 0%. For `COc1ccc(CNCC(O)(c2ccccc2)c2ccc(F)cc2)cc1OC` (stereo not given), the activity change, negative = inhibition was inconclusive: -58.8%. In the case of `Cc1ccc(NC(=O)CC2SC(=Nc3ccc(O)cc3)NC2=O)cc1` (stereo not given), the activity change, negative = inhibition is reported as inconclusive: -51.4%. For `CN(C)/C=C/C1=CC(=O)CC(C)(C)C1`, the activity change, negative = inhibition was inconclusive: -41%. In the case of `Cc1nn(CC(=O)c2ccccc2Cl)c(C)c1[N+](=O)[O-]`, the activity change, negative = inhibition is reported as inconclusive: -40.2%. With `C/C=C(/C)C(=O)O[C@@H]1[C@H](OC(C)=O)c2c(ccc3ccc(=O)oc23)OC1(C)C` the activity change, negative = inhibition was inactive: -6.23%. With `Cc1c(C(=O)N2CCN(Cc3ccccc3)CC2)sc2ncnc(N3CCOCC3)c12` the activity change, negative = inhibition was inconclusive: -49.9%. For `Cc1ccc(C(=O)O)cc1NS(=O)(=O)c1ccc2ccccc2c1`, the activity change, negative = inhibition was inconclusive: -45.7%. In the case of `Fc1cccc(-n2ncc3c2ncn2nc(Cc4ccccc4)nc32)c1`, the activity change, negative = inhibition is reported as inconclusive: -41.8%. In the case of `C=CCOc1ccc(/C=C2\SC(=S)N(NS(=O)(=O)c3ccccc3)C2=O)cc1`, the activity change, negative = inhibition is reported as inactive: 19.3%. With `Cc1cccc(C(=O)Nc2nnc(C3=COCCO3)o2)c1` the activity change, negative = inhibition was inactive: -15.8%. For `Nc1c(N(Cc2ccco2)C(=O)c2ccc(Br)cc2)c(=O)[nH]c(=O)n1Cc1ccccc1`, the activity change, negative = inhibition was inactive: 84.9%. For `CC1CC(C)CN(S(=O)(=O)c2ccc(NC(=O)c3ccc(=O)[nH]c3)cc2)C1` (stereo not given), the activity change, negative = inhibition was inconclusive: -45.9%. In the case of `Cc1ncc(CO)c(/C=N/Nc2ccc(C(F)(F)F)cn2)c1O`, the activity change, negative = inhibition is reported as active: -96.1%.
